PubChem BioAssay AID1508597 – Cure First | 2020
In all, the deposit lists about 2,100 reagents; shown is a part drawn at random. 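Calls flag viability under 80% in either arm, not effects specific to rucaparib; the reference for percent is not stated.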 Entries without a mark were called inactive. Not given: the 100% reference.

Assay: 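Survival screen with siRNA in ovarian cancer cells derived from patients, with or without rucaparib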 (primary screen)
Cells: human ovarian carcinoma lines grown from tumours: OCI-P5x (papillary serous) and OCI-C5x (clear cell)
Reagent: siRNA pool against human genes, 1.25 pmol siRNA per well
Timing: 72 h or 96 h, depending on the cell culture
Challenge: rucaparib 20 µM (about IC30) or vehicle, present until read-out
Detection: 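ATP luminescence measured at 72 or 96 h according to the culture, then normalised and expressed as percent viability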
Direction: viability, normalised: higher = more viable cells remaining
Call rule: 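Active when normalised viability falls below 80 percent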
Calls: active = viability under 80%; inactive = viability 80% or more

| target gene | rucaparib or vehicle | cell line | technical replicate | viability, normalised (%) |
| --- | --- | --- | --- | --- |
| NR4A2 | Rucaparib | OCI-C5x (clear cell) | 1 | 40.8 (active) |
| NR4A2 | Rucaparib | OCI-C5x (clear cell) | 2 | 38.5 (active) |
| NR4A2 | Rucaparib | OCI-C5x (clear cell) | 3 | 28.6 (active) |
| NR4A2 | Rucaparib | OCI-P5x (serous) | 1 | 43.2 (active) |
| NR4A2 | Rucaparib | OCI-P5x (serous) | 2 | 54.7 (active) |
| NR4A2 | Rucaparib | OCI-P5x (serous) | 3 | 50.4 (active) |
| NR4A2 | Vehicle | OCI-C5x (clear cell) | 1 | 24.7 (active) |
| NR4A2 | Vehicle | OCI-C5x (clear cell) | 2 | 34 (active) |
| NR4A2 | Vehicle | OCI-C5x (clear cell) | 3 | 40.9 (active) |
| NR4A2 | Vehicle | OCI-P5x (serous) | 1 | 52.2 (active) |
| NR4A2 | Vehicle | OCI-P5x (serous) | 2 | 49.1 (active) |
| NR4A2 | Vehicle | OCI-P5x (serous) | 3 | 65.8 (active) |
| GRN | Rucaparib | OCI-C5x (clear cell) | 1 | 60.4 (active) |
| GRN | Rucaparib | OCI-C5x (clear cell) | 2 | 50.3 (active) |
| GRN | Rucaparib | OCI-C5x (clear cell) | 3 | 50.4 (active) |
| GRN | Rucaparib | OCI-P5x (serous) | 1 | 87.9 |
| GRN | Rucaparib | OCI-P5x (serous) | 2 | 88.2 |
| GRN | Rucaparib | OCI-P5x (serous) | 3 | 83.9 |
| GRN | Vehicle | OCI-C5x (clear cell) | 1 | 53.6 (active) |
| GRN | Vehicle | OCI-C5x (clear cell) | 2 | 63.3 (active) |
| GRN | Vehicle | OCI-C5x (clear cell) | 3 | 60 (active) |
| GRN | Vehicle | OCI-P5x (serous) | 1 | 73.9 (active) |
| GRN | Vehicle | OCI-P5x (serous) | 2 | 88.1 |
| GRN | Vehicle | OCI-P5x (serous) | 3 | 82.2 |

2 entries already listed, ordered by “viability, normalised (%)”, lowest first.
| target gene | rucaparib or vehicle | cell line | technical replicate | viability, normalised (%) |
| --- | --- | --- | --- | --- |
| GRN | Vehicle | OCI-C5x (clear cell) | 1 | 53.6 (active) |
| GRN | Rucaparib | OCI-P5x (serous) | 3 | 83.9 |
